Measurements published in patent US20250295800A1, “CONJUGATE OF A SINGLE DOMAIN ANTIBODY, A SAPONIN AND AN EFFECTOR MOLECULE, PHARMACEUTICAL COMPOSITION COMPRISING THE SAME, THERAPEUTIC USE OF SAID PHARMACEUTICAL COMPOSITION” (SAPREME TECHNOLOGIES B.V., priority 2021, published 2025).
pIC50: −log10 of the molar value. Some entries share one result that the patent states for a list of compounds. For at least one compound, name, drawing or mass did not settle the structure.

Tested on: A2058 cells (EGFR-/HER2+/-/CD71+)
Test: Cell viability / cell killing (MTS) assay on A2058 cells
Format: cell-based, human
Experimental: Cells were seeded in a 96 well plate at 5.000-10.000 c/w in 100 μL/well and incubated overnight at 37° C. The next day 10× concentrated treatment-mix samples were prepared in PBS, which contain antibody-conjugated SO1861 (i.e. a ‘binding molecule’ or an ‘endosomal escape enhancing conjugate’ of the invention) and targeted-toxin (i.e. a ‘binding molecule’) both at 10× final concentration. The media was removed from the cell culture plate and replaced by 180 μL culture media, followed by the addition of 20 μL treatment-mix/well. […] After treatment the cells were incubated for 72 hr at 37° C. before the cell viability was determined by a MTS-assay, performed according to the manufacturer's instruction (CellTiter 96® AQueous One Solution Cell Proliferation Assay, Promega). […] Subsequently, the optical density at 492 nm was measured on a Thermo Scientific Multiskan FC plate reader (Thermo Scientific). For quantification the background signal of ‘medium only’ wells was subtracted from all other wells, before the ratio of untreated/treated cells was calculated, by dividing the background corrected signal of untreated wells over the background corrected signal of the treated wells. […]

Compound | pIC50 (titrated on fixed 10 pM cetuximab-saporin) | pIC50 (titrated on fixed 1 pM or 5 pM bivalentVHH-EGFR-dianthin)
CC(=O)OC1C(C)OC(OC2C(C)OC(OC(=O)[C@]34CCC(C)(C)CC3C3=CCC5[C@@]6(C)CC[C@H](OC7OC(C(=O)O)C(O)C(OC8OCC(O)C(O)C8O)C7OC7OC(CO)C(O)C(O)C7O)[C@@](C)(/C=N/NC(=O)CCCCCN7C(=O)C=CC7=O)C6CC[C@@]5(C)[C@]3(C)C[C@H]4O)C(OC3OC(C)C(OC4OCC(O)C(OC5OC(CO)C(O)C(O)C5O)C4O)C(O)C3O)C2O)C(O)C1OC1OCC(O)C(O)C1O (some centres unmarked) [SO1861-EMCH] | < 6.00 | 
SO1861 |  | < 6.00
